Data reported in paper PMC4831773.
Results are given in words; binding and its absence hold for the method and conditions named. A result given as binding can be weak or reduced; the word gives no strength. For part of these data: Where a sequence is shown, tags or fusion partners need not be part of it. For part of these data: In cells and extracts the contact can be indirect. Values belong to the molecule of their own block, whether it stands above or below them.

Columns and labels:
[1] = target: T1, Opaque2 bZIP fragment O2-2 fused to the GAL4 DNA binding domain (pGBK-T7-O2(bZIP)) (maize (Zea mays)) (UniProt P12959); experiment: two-hybrid; yeast AH109; pGAD-T7-ZmMADS47 as prey, pGBK-T7-O2(bZIP) as bait; growth on QDO (SD/-Leu/-Trp/-Ade/-His) with 10 mM 3-AT
T1 sequence: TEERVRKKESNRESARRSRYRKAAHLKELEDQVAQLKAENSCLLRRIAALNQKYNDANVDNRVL

[2] = target: T2, Opaque2, endogenous in immature maize kernels (maize (endogenous in 15-DAP kernels)) (UniProt P12959); experiment: co-IP; 15-DAP maize kernel extract (50 mM Tris-Cl, 2.5 mM EDTA, 150 mM NaCl, 0.2% NP-40, 20% glycerol); precipitated with O2 antibody and Protein A Sepharose; blotted with ZmMADS47 and O2 antibodies
T2 sequence: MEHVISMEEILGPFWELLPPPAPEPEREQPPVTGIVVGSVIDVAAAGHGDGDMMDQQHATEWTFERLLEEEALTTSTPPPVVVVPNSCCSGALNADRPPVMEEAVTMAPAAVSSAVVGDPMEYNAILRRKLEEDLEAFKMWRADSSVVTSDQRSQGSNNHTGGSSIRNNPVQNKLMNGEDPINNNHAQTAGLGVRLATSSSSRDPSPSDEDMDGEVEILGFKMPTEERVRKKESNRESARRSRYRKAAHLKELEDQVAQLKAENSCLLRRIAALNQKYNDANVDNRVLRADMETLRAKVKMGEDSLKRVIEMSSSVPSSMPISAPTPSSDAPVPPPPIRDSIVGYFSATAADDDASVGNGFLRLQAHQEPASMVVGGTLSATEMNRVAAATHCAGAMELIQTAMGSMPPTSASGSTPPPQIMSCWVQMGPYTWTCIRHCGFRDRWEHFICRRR

[3] = target: GST-tagged ZmMADS47 (ZmMADS47 ORF in pGEX-4T-1) (maize (Zea mays)); experiment: pull-down; GST or GST fusion held on Immobilized Glutathione Agarose, washed, incubated with His-O2 for more than 2 hours at 4°C; eluted with 100 mM glutathione; western blot; only the target purified

- binding [1]: binds
Molecule: ZmMADS47, full-length ORF fused to the GAL4 activation domain (pGAD-T7-ZmMADS47) (from UniProt B6TCJ4)

- binding [2]: binds
Molecule: ZmMADS47, endogenous in immature maize kernels

- binding [3]: binds
B1: His-tagged Opaque2 (O2 ORF in pET-32a) (protein, UniProt P12959 1-453)
chain: MEHVISMEEILGPFWELLPPPAPEPEREQPPVTGIVVGSVIDVAAAGHGDGDMMDQQHATEWTFERLLEEEALTTSTPPPVVVVPNSCCSGALNADRPPVMEEAVTMAPAAVSSAVVGDPMEYNAILRRKLEEDLEAFKMWRADSSVVTSDQRSQGSNNHTGGSSIRNNPVQNKLMNGEDPINNNHAQTAGLGVRLATSSSSRDPSPSDEDMDGEVEILGFKMPTEERVRKKESNRESARRSRYRKAAHLKELEDQVAQLKAENSCLLRRIAALNQKYNDANVDNRVLRADMETLRAKVKMGEDSLKRVIEMSSSVPSSMPISAPTPSSDAPVPPPPIRDSIVGYFSATAADDDASVGNGFLRLQAHQEPASMVVGGTLSATEMNRVAAATHCAGAMELIQTAMGSMPPTSASGSTPPPQIMSCWVQMGPYTWTCIRHCGFRDRWEHFICRRR
